First the molecules themselves.
B1: Ywhag (14-3-3 family) (protein, UniProt P61982 1-247)
chain: MVDREQLVQKARLAEQAERYDDMAAAMKNVTELNEPLSNEERNLLSVAYKNVVGARRSSWRVISSIEQKTSADGNEKKIEMVRAYREKIEKELEAVCQDVLSLLDNYLIKNCSETQYESKVFYLKMKGDYYRYLAEVATGEKRATVVESSEKAYSEAHEISKEHMQPTHPIRLGLALNYSVFYYEIQNAPEQACHLAKTAFDDAIAELDTLNEDSYKDSTLIMQLLRDNLTLWTSDQQDDDGGEGNN
B2: Ywhab (14-3-3 family) (protein, UniProt Q9CQV8 1-246)
chain: MTMDKSELVQKAKLAEQAERYDDMAAAMKAVTEQGHELSNEERNLLSVAYKNVVGARRSSWRVISSIEQKTERNEKKQQMGKEYREKIEAELQDICNDVLELLDKYLILNATQAESKVFYLKMKGDYFRYLSEVASGENKQTTVSNSQQAYQEAFEISKKEMQPTHPIRLGLALNFSVFYYEILNSPEKACSLAKTAFDEAIAELDTLNEESYKDSTLIMQLLRDNLTLWTSENQGDEGDAGEGEN
B3: Ywhaq (14-3-3 family) (protein, UniProt P68254 1-245)
chain: MEKTELIQKAKLAEQAERYDDMATCMKAVTEQGAELSNEERNLLSVAYKNVVGGRRSAWRVISSIEQKTDTSDKKLQLIKDYREKVESELRSICTTVLELLDKYLIANATNPESKVFYLKMKGDYFRYLAEVACGDDRKQTIENSQGAYQEAFDISKKEMQPTHPIRLGLALNFSVFYYEILNNPELACTLAKTAFDEAIAELDTLNEDSYKDSTLIMQLLRDNLTLWTSDSAGEECDAAEGAEN

Sequences of proteins named here, by UniProt entry; tags and fusion partners are left off.
UniProt Q8BLR2: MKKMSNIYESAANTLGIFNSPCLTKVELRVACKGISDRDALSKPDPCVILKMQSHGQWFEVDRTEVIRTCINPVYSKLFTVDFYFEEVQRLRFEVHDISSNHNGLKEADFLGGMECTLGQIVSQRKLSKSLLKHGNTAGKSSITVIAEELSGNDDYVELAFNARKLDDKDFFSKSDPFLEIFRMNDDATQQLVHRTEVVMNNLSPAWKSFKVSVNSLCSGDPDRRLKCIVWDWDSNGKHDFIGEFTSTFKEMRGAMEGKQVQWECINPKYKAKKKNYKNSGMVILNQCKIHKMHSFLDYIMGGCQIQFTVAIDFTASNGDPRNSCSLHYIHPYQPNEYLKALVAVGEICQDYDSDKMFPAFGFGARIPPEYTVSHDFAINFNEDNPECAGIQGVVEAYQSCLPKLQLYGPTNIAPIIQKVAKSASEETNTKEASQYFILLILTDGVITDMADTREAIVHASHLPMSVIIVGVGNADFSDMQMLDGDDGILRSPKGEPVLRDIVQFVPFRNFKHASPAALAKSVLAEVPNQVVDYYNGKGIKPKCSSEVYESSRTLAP
UniProt P14873: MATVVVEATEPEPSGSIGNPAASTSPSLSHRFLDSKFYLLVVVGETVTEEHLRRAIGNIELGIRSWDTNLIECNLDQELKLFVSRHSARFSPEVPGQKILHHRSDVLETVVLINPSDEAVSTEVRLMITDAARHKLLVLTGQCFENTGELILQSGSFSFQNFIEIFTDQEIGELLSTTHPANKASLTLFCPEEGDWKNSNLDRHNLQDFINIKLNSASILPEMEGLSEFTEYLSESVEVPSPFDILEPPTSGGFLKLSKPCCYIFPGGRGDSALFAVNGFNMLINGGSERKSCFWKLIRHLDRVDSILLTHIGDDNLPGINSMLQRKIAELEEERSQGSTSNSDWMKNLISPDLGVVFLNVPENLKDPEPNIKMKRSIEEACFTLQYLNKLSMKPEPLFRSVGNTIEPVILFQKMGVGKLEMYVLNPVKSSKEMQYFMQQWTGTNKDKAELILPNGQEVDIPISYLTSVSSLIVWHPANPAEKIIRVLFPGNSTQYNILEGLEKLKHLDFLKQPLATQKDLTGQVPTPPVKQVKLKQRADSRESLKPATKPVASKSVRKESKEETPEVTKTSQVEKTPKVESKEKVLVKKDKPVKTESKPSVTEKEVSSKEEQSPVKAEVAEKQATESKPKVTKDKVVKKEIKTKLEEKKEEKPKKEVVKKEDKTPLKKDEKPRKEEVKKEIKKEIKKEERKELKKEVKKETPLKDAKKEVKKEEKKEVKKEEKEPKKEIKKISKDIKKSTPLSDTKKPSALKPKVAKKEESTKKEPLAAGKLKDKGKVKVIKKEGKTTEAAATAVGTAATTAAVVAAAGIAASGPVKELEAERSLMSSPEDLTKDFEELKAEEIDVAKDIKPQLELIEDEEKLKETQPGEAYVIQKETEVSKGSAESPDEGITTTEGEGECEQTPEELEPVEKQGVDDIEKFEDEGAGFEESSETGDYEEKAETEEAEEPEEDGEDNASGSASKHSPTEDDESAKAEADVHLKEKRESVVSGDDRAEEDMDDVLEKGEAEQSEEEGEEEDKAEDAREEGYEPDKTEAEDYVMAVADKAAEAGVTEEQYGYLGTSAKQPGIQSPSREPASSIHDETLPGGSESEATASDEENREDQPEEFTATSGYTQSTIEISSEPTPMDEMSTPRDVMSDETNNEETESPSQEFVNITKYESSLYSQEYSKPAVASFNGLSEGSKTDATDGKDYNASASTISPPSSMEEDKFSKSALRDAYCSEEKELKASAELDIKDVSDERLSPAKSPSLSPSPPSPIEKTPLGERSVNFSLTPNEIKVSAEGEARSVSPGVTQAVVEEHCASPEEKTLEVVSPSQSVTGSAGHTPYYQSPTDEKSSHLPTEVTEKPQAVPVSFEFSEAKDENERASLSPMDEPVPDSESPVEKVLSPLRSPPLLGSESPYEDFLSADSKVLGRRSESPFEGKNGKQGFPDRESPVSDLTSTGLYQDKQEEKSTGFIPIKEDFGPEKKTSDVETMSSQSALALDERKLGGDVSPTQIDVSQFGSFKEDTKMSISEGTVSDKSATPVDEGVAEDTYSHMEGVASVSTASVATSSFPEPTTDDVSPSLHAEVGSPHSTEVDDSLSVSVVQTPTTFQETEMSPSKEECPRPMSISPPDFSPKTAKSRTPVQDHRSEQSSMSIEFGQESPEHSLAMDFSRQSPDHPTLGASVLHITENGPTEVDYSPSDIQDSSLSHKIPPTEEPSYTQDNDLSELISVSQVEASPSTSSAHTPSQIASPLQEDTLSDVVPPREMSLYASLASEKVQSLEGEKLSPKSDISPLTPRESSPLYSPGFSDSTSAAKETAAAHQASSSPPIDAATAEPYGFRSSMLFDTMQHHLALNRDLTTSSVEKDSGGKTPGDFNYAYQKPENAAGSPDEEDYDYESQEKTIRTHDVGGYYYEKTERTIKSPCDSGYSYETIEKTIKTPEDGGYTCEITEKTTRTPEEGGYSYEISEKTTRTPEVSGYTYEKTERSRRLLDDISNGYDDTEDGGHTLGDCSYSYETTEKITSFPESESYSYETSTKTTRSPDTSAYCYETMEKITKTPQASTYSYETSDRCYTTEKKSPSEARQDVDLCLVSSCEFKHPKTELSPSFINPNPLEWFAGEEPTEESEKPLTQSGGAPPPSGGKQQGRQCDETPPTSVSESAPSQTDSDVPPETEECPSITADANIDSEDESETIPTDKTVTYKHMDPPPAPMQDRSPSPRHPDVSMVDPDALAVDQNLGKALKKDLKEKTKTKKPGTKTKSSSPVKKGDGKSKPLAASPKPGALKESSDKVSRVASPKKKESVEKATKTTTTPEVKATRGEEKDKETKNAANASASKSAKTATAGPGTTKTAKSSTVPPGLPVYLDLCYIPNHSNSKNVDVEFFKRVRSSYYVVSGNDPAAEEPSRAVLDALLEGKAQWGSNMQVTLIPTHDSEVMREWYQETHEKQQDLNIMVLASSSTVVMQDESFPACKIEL
UniProt Q9JIS5: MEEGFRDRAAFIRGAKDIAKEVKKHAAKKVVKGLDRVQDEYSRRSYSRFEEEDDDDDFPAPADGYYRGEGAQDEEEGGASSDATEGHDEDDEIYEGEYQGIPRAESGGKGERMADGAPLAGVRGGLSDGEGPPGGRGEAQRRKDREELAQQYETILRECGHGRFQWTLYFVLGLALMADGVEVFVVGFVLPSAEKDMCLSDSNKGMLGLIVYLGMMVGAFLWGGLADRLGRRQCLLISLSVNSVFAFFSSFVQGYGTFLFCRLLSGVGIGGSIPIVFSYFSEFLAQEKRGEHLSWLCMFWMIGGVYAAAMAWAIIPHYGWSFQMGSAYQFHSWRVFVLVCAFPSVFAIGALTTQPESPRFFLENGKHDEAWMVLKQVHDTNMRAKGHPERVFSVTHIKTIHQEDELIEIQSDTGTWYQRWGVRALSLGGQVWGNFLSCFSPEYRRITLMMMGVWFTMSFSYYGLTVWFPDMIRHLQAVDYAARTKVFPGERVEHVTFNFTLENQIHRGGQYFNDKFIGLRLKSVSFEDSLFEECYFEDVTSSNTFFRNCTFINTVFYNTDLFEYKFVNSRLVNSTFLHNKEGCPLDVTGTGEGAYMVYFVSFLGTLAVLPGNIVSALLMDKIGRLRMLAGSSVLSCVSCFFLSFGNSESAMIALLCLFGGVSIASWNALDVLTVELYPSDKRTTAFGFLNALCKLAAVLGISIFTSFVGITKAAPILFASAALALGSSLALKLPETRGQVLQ
UniProt P63101: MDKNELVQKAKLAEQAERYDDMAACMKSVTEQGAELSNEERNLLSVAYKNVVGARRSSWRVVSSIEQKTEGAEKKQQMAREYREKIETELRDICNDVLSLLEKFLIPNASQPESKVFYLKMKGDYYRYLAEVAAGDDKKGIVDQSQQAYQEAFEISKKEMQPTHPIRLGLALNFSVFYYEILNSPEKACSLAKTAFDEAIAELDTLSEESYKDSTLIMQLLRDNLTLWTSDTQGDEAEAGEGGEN
UniProt P62259: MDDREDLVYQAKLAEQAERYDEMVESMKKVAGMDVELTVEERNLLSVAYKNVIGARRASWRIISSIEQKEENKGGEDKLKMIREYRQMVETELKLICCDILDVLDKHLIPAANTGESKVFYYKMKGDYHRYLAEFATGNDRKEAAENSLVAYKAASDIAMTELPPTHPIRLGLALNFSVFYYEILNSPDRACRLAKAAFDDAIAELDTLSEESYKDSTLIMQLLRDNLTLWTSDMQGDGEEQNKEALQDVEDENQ

This is an account of results in doi:10.1101/2021.08.09.455730.

No constants are given. Whether binding was seen depends on the method and setting. Binding seen in cells or lysates may run through a third protein. Here binding means that the protein was enriched with, or labelled near, the bait; the list need not be complete.

The assay concerns the target GST-Cpne4 (UniProt Q8BLR2). The assay can be described thus: affinity purification with mass spectrometry.
On to Map1b (from UniProt P14873 1-2464), for which the binding result is reported as “binds”.

As to SV2a (from UniProt Q9JIS5 1-742), the binding result is on record as “binds”.

Take “Ywhaz (14-3-3 family) (from UniProt P63101 1-245)”: the binding result was “binds”.

Consider 14-3-3Ɛ (from UniProt P62259 1-255), for which the binding entry is reported as “binds”.

In the case of B1, the binding entry is listed as “binds”.

For the molecule B2, the binding entry is recorded as “binds”.

As for B3, the binding entry is reported as “binds”.
